Assay results published in patent US20020150897A1, “Method for detecting and isolating genes” (Institute of Cytosignal Research, Inc., priority 1997, published 2002).
For at least one compound, name, drawing or mass did not settle the structure.

How the values were obtained:
IL-8 promoter [1] = assay: Second screening by reporter gene method (pIL8p-Luc luciferase) in IL8p-gpt-neo #17 cells; format: cell-based, human; details: cells with pSRO without cDNA; 1 μM dexamethasone 3 hours before 100 U/ml TNF, 5 hours; FIG. 18
IL-8 promoter [2] = details: reported by Mukaida et al.; cited from earlier work
[3] = system: IL-8 promoter (signal transduction from TNF stimulation to activation of IL-8 promoter); assay: Quantitative living cell measurement with Alamar Blue in Clone #17 (IL8p-gpt-neo #17) under TNF-α and 6-TG; format: cell-based, human; details: Clone #17, 96-well plate; 1000 U/ml TNF-α, 1 μM dexamethasone, 1 μg/ml 6-TG; FIG. 16
[4] = system: IL-8 promoter (signal transduction from TNF stimulation to activation of IL-8 promoter); assay: TNF-α/6-TG induced cell death of HGPRT-deficient clones carrying IL8p-gpt-neo (12-well plate, cell survival observed); format: cell-based, human; details: clones #17 and #21; 1 μM dexamethasone for 3 hours, 1000 ng/ml 6-TG, 20 to 100 U/ml TNF-α

For `C[C@@H]1C[C@H]2[C@@H]3CCC4=CC(=O)C=C[C@]4(C)[C@@]3(F)[C@@H](O)C[C@]2(C)[C@@]1(O)C(=O)CO` [dexamethasone], the “TNF-induced luciferase activity (compensated by β-galactosidase activity)” value (IL-8 promoter [1]) is given as “inhibited the activity”, the “effect on activation of the IL-8 promoter” value (IL-8 promoter [2]) is given as “inhibitory effect on activation of the IL-8 promoter” and the “cell death / cell growth (living cells measured using Alamar Blue)” value [3] is given as “inhibited cell death and kept cells growing”. For the same compound, the “cell death induced by TNF-α stimulation in the presence of 6-TG” value [4] was “markedly inhibited”.
